Results: patent publication US4041168A, “Nitroimidazole derivative with antibacterial activity” (Gruppo Lepetit S.p.A., priority 1975, dated 1977)

System: Trichomonas vaginalis
Experiment: in vivo activity against experimental infection in mice caused by Trichomonas vaginalis (ED50, Therapeutical Index)
Details: for ΔTI (difference between Therapeutical Index of the 5-hydroxyalkyl and the corresponding 5-alkyl compound): Table 2, 5-hydroxyalkyl minus 5-alkyl compound of the pair; for ΔTI (difference between Therapeutical Indexes of compounds K and A and compounds F and B): Table 3, K minus F, A minus B
Procedure: This activity, expressed as an ED50 value, is moreover coupled with a very low toxicity, expressed as an LD50 value, which was determined substantially according to the method described by Lichtfield and Wilcoxon, Journ. Pharm. Exp. Ther., 96, 99, 1949. In representative experiments, the following results have been obtained:
which indicate that the compound of the invention is a very useful and promising anti-Trichomonas agent. This becomes even more evident if one considers its Therapeutical Index (TI). Said parameter, which is mathematically expressed by the following ratio LD50 /ED50 gives a reliable idea about the safety of a drug and, considering how it is calculated, it is clear that the higher the TI, the safer the drug is; a high value of the Therapeutical Index means in fact a low effective dose (ED50) in comparison with the lethal dose (LD50). […] As an example, the 5-isopropyl-1-methyl-2-nitroimidazole, described in U.S. Pat. No. 3,499,967 and therein mentioned as one of the most outstanding in vivo active 2-nitroimidazoles against Trichomonas vaginalis, has a Therapeutical Index of 102.
1. In the present experiment there are compared the anti-Trichomonas in vivo activities and the Therapeutical Indexes (TI) of the compound of the invention (hereinafter referred to as compound A) and four 5-hydroxy alkyl-2-nitroimidazoles described or falling within prior art patents. In these four compounds the hydroxy group is bound to a primary or secondary carbon atom which not necessarily is linked to the imidazole nucleus.
2. In the following set of experiments there are evaluated the variations of Therapeutical Index (positive or negative) which are observed when some 5-alkyl-2 -nitroimidazoles known from the prior art are compared with the corresponding 5-hydroxyalkyl-2-nitroimidazoles, including the new compound A. Obviously all of the compounds are tested for their in vivo activity against Trichomonas vaginalis. […] With reference to the hereinbelow reported table and the first four pair of compounds, the results clearly indicate that the variations of Therapeutical Index which are observed are slightly positive or even negative i.e., that the Therapeutical Index of the known 5-hydroxyalkyl-2-nitroimidazoles either is worse than or is substantially the same as that of the corresponding 5-alkyl compounds: this practically means that no appreciable therapeutical results have been obtained, and that, considering the last pair of substances i.e., compound K and compound A (the compound of the invention), an unrelevant or unfavorable variation of the Therapeutical Index would have to be expected as well. On the contrary, a dramatically favorable and unpredictable variation of this parameter is observed and, clearly, this effect is to be interpreted as a remarkable improvement of the therapeutical (anti-Trichomonas) properties:
3. In the third experiment there are evaluated the effects on the Therapeutical Index of the substitution with two methyl groups of two hydrogen atoms of the methyl radical at the 5-position of compound F namely [drawing 17] in comparison with the effects on the same parameter caused by the substitution with two methyl groups of the two hydrogen atoms of the hydroxymethyl group of compound B, namely [drawing 18] The compounds are obviously tested for their anti-Trichomonas in vivo properties.

SMILES	ΔTI (difference between Therapeutical Index of the 5-hydroxyalkyl and the corresponding 5-alkyl compound)	ΔTI (difference between Therapeutical Indexes of compounds K and A and compounds F and B)
Cn1c(CO)cnc1[N+](=O)[O-] [drawing 8]	+5.4	
Cn1c(CCO)cnc1[N+](=O)[O-] [drawing 10]	+5	
CC(O)Cc1cnc([N+](=O)[O-])n1C (stereo not shown) [drawing 12]	+17.8	
CC(CO)c1cnc([N+](=O)[O-])n1C (stereo not shown) [drawing 14]	-63.2	
Cn1c(C(C)(C)O)cnc1[N+](=O)[O-] [drawing 16]	+215	
CC(C)c1cnc([N+](=O)[O-])n1C [drawing 21]		78.6
Cn1c(C(C)(C)O)cnc1[N+](=O)[O-] [drawing 23]		292.2
